The supplement of paper PMC7877785
± gives the uncertainty stated by the source. Many entries were measured with a wide error.

Experiment: self-splicing fitness, log relative to wild type (ln ratio); higher = more splicing; Tetrahymena group I intron in knt gene, E. coli kanamycin selection, DiMSum; sequences stand for … in CUCUCU…GGAGGGAAAAGUUAUCAGGCAUGCACCUGGUAGCUAGUCUUUAAACCAAUAGAUUGCAUCGGUUUAAAAGGCAAGACCGUCAAAUUGCGGGAAAGGGGUCAACAGCCGUUCAGUACCAAGUCUCAGGGGAAACUUUGAGAUGGCCUUGCAAAGGGUAUGGUAAUAAGCUGACGGACAUGGUCCUAACCACGCAGCCAAGUCCUAAGUCAACAGAUCUUCUGUUGAUAUGGAUGCAGUUCACAGACUAAAUGUCGGUCGGGGAAGAUGUAUUCUUCUCAUAAGAUAUAGUCGGACCUCUCCUUAAUGGGAGCUAGCGGAUGAAGUGAUGCAACACUGGAGCCGCUGGGAACUAAUUUGUAUGCGAAAGUAUAUUGAUUAGUUUUGGAGUACUCGUGGUCG
Outline: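 A randomised library covering all eight P1ex-region intron nucleotides was built with the intron in the knt kanamycin-resistance gene on pET-22b(+) and held in E. coli BL21(DE3). Cells were grown overnight at 37°C or 30°C on LB agar, with or without 25 μg/mL kanamycin, plus 100 μg/mL carbenicillin, 50 μM IPTG and 0.2% rhamnose, and pooled colonies were amplicon-sequenced on an Illumina HiSeq 2500. DiMSum fitness is the error-weighted combination of wild-type-normalised replicate fold changes, kanamycin versus none.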

| Sequence | self-splicing fitness (ln) (30 °C) | self-splicing fitness (ln) (37 °C) |
| --- | --- | --- |
| CAAUAGCAAUAUUACGCUCC | -2.7 ± 0.63 |  |
| GCCGAGCAAUAUUACGAUGU | -0.691 ± 0.057 | -0.267 ± 0.069 |
| CUUUAGCAAUAUUACGAUAC | -3.4 ± 0.39 | -2.42 ± 0.45 |
| UCAAAGCAAUAUUACGUUAC | -6.61 ± 0.71 |  |
| UCCAAGCAAUAUUACGAUCG | -2.65 ± 0.19 | -3.06 ± 0.24 |
| GUUUAGCAAUAUUACGUUCC |  | -1.09 ± 0.5 |
| AAUCAGCAAUAUUACGUUCU | 0.0868 ± 0.061 | 0.0857 ± 0.085 |
| AAUUAGCAAUAUUACGCUGC | -3.63 ± 1 |  |
| AAGUAGCAAUAUUACGGAAC | -1.4 ± 0.49 | -1.46 ± 0.25 |
| UAAGAGCAAUAUUACGAAGA | -3.09 ± 0.54 |  |
| CUGGAGCAAUAUUACGCACC | -2.71 ± 0.65 | -0.961 ± 0.69 |
| GCAGAGCAAUAUUACGAAAA | -1.96 ± 1.2 | -0.681 ± 1 |
| GUGGAGCAAUAUUACGCUGA | -2.18 ± 0.84 |  |
| UCUUAGCAAUAUUACGAUAC | -5.01 ± 1 |  |
| GCGAAGCAAUAUUACGGUCG | -3.65 ± 0.32 | -2.77 ± 0.4 |
| CUUUAGCAAUAUUACGUCCC | -1.12 ± 0.76 |  |
| CACUAGCAAUAUUACGAGCC | -2.66 ± 0.54 |  |
| CUGUAGCAAUAUUACGGGCC | -2.83 ± 0.54 |  |
| UCUGAGCAAUAUUACGCAUC | -1.67 ± 0.6 |  |
| CGGCAGCAAUAUUACGACCG |  | -3.06 ± 0.6 |

| Sequence | self-splicing fitness (ln) (30 °C) | self-splicing fitness (ln) (37 °C) |
| --- | --- | --- |
| GGUUAGCAAUAUUACGCUAG |  | -0.522 ± 0.77 |
| CAUUAGCAAUAUUACGUCCA | -3.34 ± 0.32 | -1.3 ± 0.28 |
| ACAGAGCAAUAUUACGAAGC |  | -3.16 ± 0.76 |
| CACUAGCAAUAUUACGUGCU | -3.69 ± 0.2 | -2.55 ± 0.15 |
| CCGGAGCAAUAUUACGGCUC | -3.86 ± 1 |  |
| CACGAGCAAUAUUACGACUC | -3.64 ± 1 |  |
| AUUUAGCAAUAUUACGACAU | 0.163 ± 0.014 | 0.28 ± 0.033 |
| UAAUAGCAAUAUUACGACAC |  | -1.33 ± 0.63 |
| CCUUAGCAAUAUUACGCUGA |  | -3.06 ± 0.53 |
| UACGAGCAAUAUUACGAAGG | -4.01 ± 0.6 | -0.765 ± 0.3 |
| GCGUAGCAAUAUUACGUCAC | -2.81 ± 1.1 |  |
| GAAGAGCAAUAUUACGGCCA | -1.59 ± 0.3 | -1.27 ± 0.5 |
| GCGGAGCAAUAUUACGGCCG | -1.4 ± 0.67 | -2.23 ± 1.1 |
| CCGUAGCAAUAUUACGCCCC | -2.7 ± 0.76 | -2.27 ± 0.84 |
| CAGUAGCAAUAUUACGCCAC |  | -0.571 ± 0.61 |
| GAGUAGCAAUAUUACGGACU | -0.25 ± 0.072 | -0.487 ± 0.096 |
| UCGGAGCAAUAUUACGACAA |  | -0.777 ± 0.56 |
| UGCUAGCAAUAUUACGAAGC | -2.5 ± 0.53 | -2.03 ± 0.56 |
| UGUGAGCAAUAUUACGUCGC |  | -1.32 ± 0.54 |
| CUGUAGCAAUAUUACGUCUC |  | -2.71 ± 0.62 |

4 entries from above in another layout.
Sequence,self-splicing fitness (ln) (30 °C),self-splicing fitness (ln) (37 °C)
ACAGAGCAAUAUUACGAAGC,,-3.16 ± 0.76
CACGAGCAAUAUUACGACUC,-3.64 ± 1,
UAAUAGCAAUAUUACGACAC,,-1.33 ± 0.63
CUGUAGCAAUAUUACGUCUC,,-2.71 ± 0.62

Next results:

| Sequence | self-splicing fitness (ln) (30 °C) | self-splicing fitness (ln) (37 °C) |
| --- | --- | --- |
| CACGAGCAAUAUUACGGCCA | -3.31 ± 0.63 |  |
| UCGCAGCAAUAUUACGCGUC | -3.42 ± 0.16 | -1.8 ± 0.14 |
| UCCGAGCAAUAUUACGUCCU |  | -1.75 ± 0.67 |
| CCUUAGCAAUAUUACGUCGA | -3.44 ± 0.52 |  |
| GAGGAGCAAUAUUACGGUGG |  | -2.76 ± 0.74 |
| AUGAAGCAAUAUUACGCACU | 0.079 ± 0.14 | 0.992 ± 0.22 |
| GCUAAGCAAUAUUACGCGCC | -3.7 ± 0.63 | -5.3 ± 1 |
| ACGUAGCAAUAUUACGCCGU | -2.54 ± 0.78 | -0.939 ± 0.76 |
| UCUGAGCAAUAUUACGACAG | -1.02 ± 0.12 | -1.04 ± 0.15 |
| UCCCAGCAAUAUUACGCGGC | -3.81 ± 0.54 |  |
| UAUGAGCAAUAUUACGCAUA | -3.28 ± 0.53 |  |
| AUCGAGCAAUAUUACGGGGC |  | -4.15 ± 1 |
| GUCUAGCAAUAUUACGCCGC |  | -2.68 ± 0.55 |
| GUUUAGCAAUAUUACGAGUC | -3.71 ± 0.6 |  |
| CGAAAGCAAUAUUACGCGCA | -0.957 ± 0.12 | -0.435 ± 0.13 |
| CUAUAGCAAUAUUACGUUCC | -3.81 ± 1 | -2.76 ± 0.53 |
| UUGGAGCAAUAUUACGAAGG | -1.12 ± 0.54 | -1.7 ± 0.66 |
| UAUGAGCAAUAUUACGGAGC |  | -1.19 ± 0.73 |
